Results as given in publication doi:10.1101/2024.06.20.599911 (bioRxiv, 2024).
Results are given in words; binding and its absence hold for the method and conditions named. For some assays here: Binding seen in cells or lysates may run through a third protein. Some results given as binding are weak or reduced against the parent protein; the word gives no strength. For some assays here: Where a sequence is shown, tags or fusion partners need not be part of it.

T1: PLVCub-AtCNIH5 (Arabidopsis thaliana) (UniProt Q9SZ74)
T1 sequence: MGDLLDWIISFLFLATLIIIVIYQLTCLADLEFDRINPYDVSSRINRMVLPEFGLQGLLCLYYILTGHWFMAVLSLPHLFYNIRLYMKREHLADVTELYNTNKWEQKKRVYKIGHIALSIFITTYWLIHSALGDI

T2: S10-AtCNIH5 (Arabidopsis thaliana CORNICHON HOMOLOG 5 tagged with the 10th β-strand of GFP) (Arabidopsis thaliana) (UniProt Q9SZ74)
T2 sequence: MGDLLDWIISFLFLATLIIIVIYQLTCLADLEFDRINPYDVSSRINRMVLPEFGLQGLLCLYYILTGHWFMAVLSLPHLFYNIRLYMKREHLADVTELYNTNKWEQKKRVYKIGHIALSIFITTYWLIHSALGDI

T3: AtPHT1;1-S11 (PHOSPHATE TRANSPORTER 1;1 tagged with the 11th β-strand of sfGFP) (Arabidopsis thaliana) (UniProt Q8VYM2)
T3 sequence: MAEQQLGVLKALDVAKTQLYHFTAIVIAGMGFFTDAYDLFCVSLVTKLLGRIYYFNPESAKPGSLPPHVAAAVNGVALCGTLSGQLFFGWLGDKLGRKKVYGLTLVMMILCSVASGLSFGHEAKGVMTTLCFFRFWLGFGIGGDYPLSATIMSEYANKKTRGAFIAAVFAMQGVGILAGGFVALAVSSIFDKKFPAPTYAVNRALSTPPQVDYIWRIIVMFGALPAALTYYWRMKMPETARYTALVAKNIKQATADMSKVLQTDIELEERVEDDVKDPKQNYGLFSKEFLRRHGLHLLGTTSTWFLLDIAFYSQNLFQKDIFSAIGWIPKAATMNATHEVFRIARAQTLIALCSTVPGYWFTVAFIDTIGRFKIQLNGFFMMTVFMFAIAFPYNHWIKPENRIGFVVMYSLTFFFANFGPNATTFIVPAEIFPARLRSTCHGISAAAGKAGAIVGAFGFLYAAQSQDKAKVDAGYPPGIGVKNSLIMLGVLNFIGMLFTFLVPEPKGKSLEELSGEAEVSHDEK


Experiments:
[1] = target: T1, PLVCub-AtCNIH5 (Arabidopsis thaliana); assay: two-hybrid
[2] = target: T2, S10-AtCNIH5 (Arabidopsis thaliana CORNICHON HOMOLOG 5 tagged with the 10th β-strand of GFP) (Arabidopsis thaliana); assay: split reporter
[3] = target: T3, AtPHT1;1-S11 (PHOSPHATE TRANSPORTER 1;1 tagged with the 11th β-strand of sfGFP) (Arabidopsis thaliana); assay: split reporter

Binder	binding [1]	other results
AtPHO2^C748A-S11 (catalytically defective PHOSPHATE2) (enzyme, UniProt Q8VY10 1-907) MEMSLTDSDWDSSSDSGSSEHEEVEFSYGGRAQNIFSNLEETIGKIDEFLSFERGFMYGDIVRSATEPSGQSGRVINIDMFVNLESTHGKIMKEVDTKRLQKLRSISLSDYVINGPWVGRVDKIVERVSVTLDDGTNYEVLVDGQDKLVAIPPNLLEDSQYSYYPGQRVQVKLAHAPRSTTWLCGTWRGTQVMGTVCTVEAGLVYVDWVASIVMEGDRNLTAPQALQNPESLTLLPCVSHASWQLGDWCILPGSSHCDIAERQTPNVAAYNLNECHKTFQKGFNRNMQNSGLDELFVITKTKMKVAVMWQDGSCSLGVDSQQLLPVGAVNAHDFWPEQFVVEKETCNSKKWGVVKAVNAKEQTVKVQWTIQVEKEATGCVDEVMEEIVSAYELLEHPDFGFCFSDVVVKLLPEGKFDPNADTIVATEAKHLLTESDYSGAYFLSSIGVVTGFKNGSVKVKWANGSTSKVAPCEIWKMERSEYSNSSTVSSEGSVQDLSQKISQSDEASSNHQETGLVKLYSVGESCNENIPECSSFFLPKAAIGFITNLASSLFGYQGSTSVISSHSRCNDSEDQSDSEVLVQETAESYDNSETNSGEVDMTTTMVNIPIEGKGINKTLDSTLLENSRNQVRFRQFDMVNDCSDHHFLSSDKGLAQSQVTKSWVKKVQQEWSNLEANLPNTIYVRVCEERMDLLRAALVGAPGTPYHDGLFFFDIMLPPQYPHEPPMVHYHSGGMRLNPNLYESGRVALSLLNTWSGSGTEVWNAGSSSILQLLLSFQALVLNEKPYFNEAGYDKQLGRAEGEKNSVSYNENAFLITCKSMISMLRKPPKHFEMLVKDHFTHRAQHVLAACKAYMEGVPVGSSANLQGNSTTNSTGFKIMLSKLYPKLLEAFSEIGVDCVQEIGPES	–	binding [2]: no binding
NubG-AtPHT1;1 (protein, UniProt Q8VYM2 1-524) MAEQQLGVLKALDVAKTQLYHFTAIVIAGMGFFTDAYDLFCVSLVTKLLGRIYYFNPESAKPGSLPPHVAAAVNGVALCGTLSGQLFFGWLGDKLGRKKVYGLTLVMMILCSVASGLSFGHEAKGVMTTLCFFRFWLGFGIGGDYPLSATIMSEYANKKTRGAFIAAVFAMQGVGILAGGFVALAVSSIFDKKFPAPTYAVNRALSTPPQVDYIWRIIVMFGALPAALTYYWRMKMPETARYTALVAKNIKQATADMSKVLQTDIELEERVEDDVKDPKQNYGLFSKEFLRRHGLHLLGTTSTWFLLDIAFYSQNLFQKDIFSAIGWIPKAATMNATHEVFRIARAQTLIALCSTVPGYWFTVAFIDTIGRFKIQLNGFFMMTVFMFAIAFPYNHWIKPENRIGFVVMYSLTFFFANFGPNATTFIVPAEIFPARLRSTCHGISAAAGKAGAIVGAFGFLYAAQSQDKAKVDAGYPPGIGVKNSLIMLGVLNFIGMLFTFLVPEPKGKSLEELSGEAEVSHDEK	binds	–
S10-AtCNIH5 (Arabidopsis thaliana CORNICHON HOMOLOG 5 tagged with the 10th β-strand of GFP) (protein, UniProt Q9SZ74 1-135) MGDLLDWIISFLFLATLIIIVIYQLTCLADLEFDRINPYDVSSRINRMVLPEFGLQGLLCLYYILTGHWFMAVLSLPHLFYNIRLYMKREHLADVTELYNTNKWEQKKRVYKIGHIALSIFITTYWLIHSALGDI	–	binding [3]: binds

Now from value to binder, other results behind:

binding [1]	Binder	other results
binds	endogenous AtPHF1 (natural protein, UniProt Q8GYE0 1-398, looked up) MEIEEASRESGHVVCGSWIRRPKKVNWVLIAKASKRRGSSVSSPALLNIFSFDPITASLSSSPLATHTLKDSDGDPVAVSVHPGGDYFVCSTSKGGCKLFELVGGATGITILAKELLPLQNAGLQKCMAFSFDGSKLAVGGVDGCLRIMEWPNLSVILDEPKAHKSIRDMDFSLDSEFLATTSTDGSARIWKAEDGFPLSTLERSGDENIELCRFSKDGTKPFLFCAAQRGDTPMVNVYDISTWKKLGFKKLSRKTASTMAVSLDGKYIALGGKDGDVSVAEVKTMEIYHYSKRLHLGQSIASLEFCPSERVMLTTSSEWGEMVTKLTVPKEWKEWQIYALLFCLFMASVIAAYVFFENSDSFWKLPMGKDQKRPKISLFGGSSSTPSEDHSRWNLDL	–
binds	NubG-AtPHT1;4 (protein, UniProt Q96303 1-534) MAREQLQVLNALDVAKTQWYHFTAIIIAGMGFFTDAYDLFCISLVTKLLGRIYYHVEGAQKPGTLPPNVAAAVNGVAFCGTLAGQLFFGWLGDKLGRKKVYGMTLMVMVLCSIASGLSFGHEPKAVMATLCFFRFWLGFGIGGDYPLSATIMSEYANKKTRGAFVSAVFAMQGFGIMAGGIFAIIISSAFEAKFPSPAYADDALGSTIPQADLVWRIILMAGAIPAAMTYYSRSKMPETARYTALVAKDAKQAASDMSKVLQVEIEPEQQKLEEISKEKSKAFGLFSKEFMSRHGLHLLGTTSTWFLLDIAFYSQNLFQKDIFSAIGWIPPAQSMNAIQEVFKIARAQTLIALCSTVPGYWFTVAFIDVIGRFAIQMMGFFFMTVFMFALAIPYNHWTHKENRIGFVIMYSLTFFFANFGPNATTFVVPAEIFPARFRSTCHGISAASGKLGAMVGAFGFLYLAQNPDKDKTDAGYPPGIGVRNSLIVLGVVNFLGILFTFLVPESKGKSLEEMSGENEDNENSNNDSRTVPIV	–
